PubChem BioAssay AID602196 – INSERM – 2012
The whole screen tested about 23,000 reagents; shown is a part drawn at random. In the full data, 455 (2%) were called active. 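Active includes both protection and sensitisation; some change values fall well beyond the stated -50 to +50 range.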 Not all columns of the deposit are shown. Not stated in the record: the amount of reagent.

Assay: 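Genes whose knock-down alters cisplatin killing of lung cancer cells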
Cell system: human A549 lung cancer cells
Reagent: siRNA pair against human genes
Timing: 48 h transfection before cisplatin; time from cisplatin to read-out not stated
Challenge: cisplatin at a dose killing half of control-siRNA cells; exact dose and duration not given
Detection: 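Shift in cisplatin death relative to control siRNA, from -50 (all cells die) to +50 (no cells die); siRNAs harmful on their own scored 0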
Direction: two-siRNA summed score (-2 to +2): higher = both siRNAs protect from cisplatin killing; -2 means both sensitise; mean protection from cisplatin (shift in death): higher = protection from cisplatin killing
Call rule: 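siRNAs harmful alone (LDH or WST-1) get 0; others get +1 for less and -1 for more cisplatin killing; genes are active when the two siRNAs give the same sign, summing to ±2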
Meaning of the calls: active = both siRNAs shift cisplatin killing the same way; inactive = no consistent shift, or siRNA harmful alone

SLC6A2 scored two-siRNA summed score (-2 to +2) = 0; mean protection from cisplatin (shift in death) (%) = 11.9; inactive. After knock-down of DKFZp434A128, the record shows two-siRNA summed score (-2 to +2) = 1; mean protection from cisplatin (shift in death) (%) = 12; inactive. With knock-down of CD207 the results were two-siRNA summed score (-2 to +2) = 0; mean protection from cisplatin (shift in death) (%) = 6.8; inactive. With knock-down of FBXO33, the record shows two-siRNA summed score (-2 to +2) = 1; mean protection from cisplatin (shift in death) (%) = 17.9; inactive. Silencing of PDZRN4 resulted in: two-siRNA summed score (-2 to +2) = 0; mean protection from cisplatin (shift in death) (%) = 2.7; inactive. LOC401357 gave two-siRNA summed score (-2 to +2) = 2; mean protection from cisplatin (shift in death) (%) = 16.2; active.

Depletion of LOC153778 gave: two-siRNA summed score (-2 to +2) = 0; mean protection from cisplatin (shift in death) (%) = 4.8; inactive. For SAR1B the deposit lists two-siRNA summed score (-2 to +2) = 1; mean protection from cisplatin (shift in death) (%) = 13.6; inactive. Against CTDSPL the deposit lists two-siRNA summed score (-2 to +2) = 0; mean protection from cisplatin (shift in death) (%) = 12.5; inactive. Against LOC201501, the values are two-siRNA summed score (-2 to +2) = 0; mean protection from cisplatin (shift in death) (%) = 12; inactive. With knock-down of TNXB, the record shows two-siRNA summed score (-2 to +2) = 0; mean protection from cisplatin (shift in death) (%) = 5.7; inactive. LOC400756 (retired record) gave two-siRNA summed score (-2 to +2) = 0; mean protection from cisplatin (shift in death) (%) = 2.9; inactive.

Against OR7G1 the deposit lists two-siRNA summed score (-2 to +2) = 1; mean protection from cisplatin (shift in death) (%) = -2; inactive. With knock-down of WNT8A, the record shows two-siRNA summed score (-2 to +2) = 0; mean protection from cisplatin (shift in death) (%) = 9.8; inactive. With knock-down of ACP3, the record shows two-siRNA summed score (-2 to +2) = 0; mean protection from cisplatin (shift in death) (%) = 4.4; inactive. LOC439975 scored two-siRNA summed score (-2 to +2) = 0; mean protection from cisplatin (shift in death) (%) = 5.8; inactive. RTN4RL1 gave two-siRNA summed score (-2 to +2) = 1; mean protection from cisplatin (shift in death) (%) = 15.7; inactive. ORAI1 gave two-siRNA summed score (-2 to +2) = 0; mean protection from cisplatin (shift in death) (%) = -0.4; inactive.

After knock-down of DEPDC5, the record shows two-siRNA summed score (-2 to +2) = 0; mean protection from cisplatin (shift in death) (%) = 10.9; inactive. Silencing of HMG20B resulted in: two-siRNA summed score (-2 to +2) = 0; mean protection from cisplatin (shift in death) (%) = -14.1; inactive. Against TMED1 the deposit lists two-siRNA summed score (-2 to +2) = -1; mean protection from cisplatin (shift in death) (%) = -19.5; inactive. Against LOC441095, the values are two-siRNA summed score (-2 to +2) = 0; mean protection from cisplatin (shift in death) (%) = 1.4; inactive. After knock-down of RBP3 the results were two-siRNA summed score (-2 to +2) = 0; mean protection from cisplatin (shift in death) (%) = 0.9; inactive.

Part of the list above, reduced to “mean protection from cisplatin (shift in death) (%)”.
CD207 = 6.8
FBXO33 = 17.9
PDZRN4 = 2.7
LOC401357 = 16.2
LOC153778 = 4.8

The listing continues:
With knock-down of HBP1 the results were two-siRNA summed score (-2 to +2) = 1; mean protection from cisplatin (shift in death) (%) = 11.3; inactive. ELOB gave two-siRNA summed score (-2 to +2) = 0; mean protection from cisplatin (shift in death) (%) = 5.1; inactive. For TMEM39A the deposit lists two-siRNA summed score (-2 to +2) = 0; mean protection from cisplatin (shift in death) (%) = -2; inactive. SLC5A4 scored two-siRNA summed score (-2 to +2) = 2; mean protection from cisplatin (shift in death) (%) = 16.7; active. Against NELFCD, the values are two-siRNA summed score (-2 to +2) = 0; mean protection from cisplatin (shift in death) (%) = 7.1; inactive. Knock-down of ITLN1 gave: two-siRNA summed score (-2 to +2) = 0; mean protection from cisplatin (shift in death) (%) = 4.9; inactive.

ZNF474 scored two-siRNA summed score (-2 to +2) = 0; mean protection from cisplatin (shift in death) (%) = -0.4; inactive. After knock-down of LOC387933, the record shows two-siRNA summed score (-2 to +2) = 1; mean protection from cisplatin (shift in death) (%) = 17.3; inactive. Against OR5L2, the values are two-siRNA summed score (-2 to +2) = 0; mean protection from cisplatin (shift in death) (%) = 3.2; inactive. Silencing of LOC339746 gave: two-siRNA summed score (-2 to +2) = 0; mean protection from cisplatin (shift in death) (%) = 10.2; inactive. Against PELI3 the deposit lists two-siRNA summed score (-2 to +2) = 1; mean protection from cisplatin (shift in death) (%) = 2.9; inactive. LMTK1 gave two-siRNA summed score (-2 to +2) = 2; mean protection from cisplatin (shift in death) (%) = 19.8; active.

With knock-down of HNRNPAB the results were two-siRNA summed score (-2 to +2) = 0; mean protection from cisplatin (shift in death) (%) = 6.1; inactive. For UAP1L1 the deposit lists two-siRNA summed score (-2 to +2) = 0; mean protection from cisplatin (shift in death) (%) = -4.1; inactive. SLC13A2 gave two-siRNA summed score (-2 to +2) = -1; mean protection from cisplatin (shift in death) (%) = -2.1; inactive. For SLC7A4 the deposit lists two-siRNA summed score (-2 to +2) = 0; mean protection from cisplatin (shift in death) (%) = -3.2; inactive. For NUP54 the deposit lists two-siRNA summed score (-2 to +2) = 0; mean protection from cisplatin (shift in death) (%) = -15; inactive.
